Measured values as given in article PMC9523997.
These are yes or no findings as the source states them, for the method shown. In cells and extracts the contact can be indirect. A yes stands for co-enrichment or nearness to the bait. Other partners may have been found. Tags and fused reporters may be left off the sequences shown. Each block holds one molecule with its values, some of them ahead of it.

The chains behind the UniProt entries cited, without tags or fusion partners.
UniProt Q9V727: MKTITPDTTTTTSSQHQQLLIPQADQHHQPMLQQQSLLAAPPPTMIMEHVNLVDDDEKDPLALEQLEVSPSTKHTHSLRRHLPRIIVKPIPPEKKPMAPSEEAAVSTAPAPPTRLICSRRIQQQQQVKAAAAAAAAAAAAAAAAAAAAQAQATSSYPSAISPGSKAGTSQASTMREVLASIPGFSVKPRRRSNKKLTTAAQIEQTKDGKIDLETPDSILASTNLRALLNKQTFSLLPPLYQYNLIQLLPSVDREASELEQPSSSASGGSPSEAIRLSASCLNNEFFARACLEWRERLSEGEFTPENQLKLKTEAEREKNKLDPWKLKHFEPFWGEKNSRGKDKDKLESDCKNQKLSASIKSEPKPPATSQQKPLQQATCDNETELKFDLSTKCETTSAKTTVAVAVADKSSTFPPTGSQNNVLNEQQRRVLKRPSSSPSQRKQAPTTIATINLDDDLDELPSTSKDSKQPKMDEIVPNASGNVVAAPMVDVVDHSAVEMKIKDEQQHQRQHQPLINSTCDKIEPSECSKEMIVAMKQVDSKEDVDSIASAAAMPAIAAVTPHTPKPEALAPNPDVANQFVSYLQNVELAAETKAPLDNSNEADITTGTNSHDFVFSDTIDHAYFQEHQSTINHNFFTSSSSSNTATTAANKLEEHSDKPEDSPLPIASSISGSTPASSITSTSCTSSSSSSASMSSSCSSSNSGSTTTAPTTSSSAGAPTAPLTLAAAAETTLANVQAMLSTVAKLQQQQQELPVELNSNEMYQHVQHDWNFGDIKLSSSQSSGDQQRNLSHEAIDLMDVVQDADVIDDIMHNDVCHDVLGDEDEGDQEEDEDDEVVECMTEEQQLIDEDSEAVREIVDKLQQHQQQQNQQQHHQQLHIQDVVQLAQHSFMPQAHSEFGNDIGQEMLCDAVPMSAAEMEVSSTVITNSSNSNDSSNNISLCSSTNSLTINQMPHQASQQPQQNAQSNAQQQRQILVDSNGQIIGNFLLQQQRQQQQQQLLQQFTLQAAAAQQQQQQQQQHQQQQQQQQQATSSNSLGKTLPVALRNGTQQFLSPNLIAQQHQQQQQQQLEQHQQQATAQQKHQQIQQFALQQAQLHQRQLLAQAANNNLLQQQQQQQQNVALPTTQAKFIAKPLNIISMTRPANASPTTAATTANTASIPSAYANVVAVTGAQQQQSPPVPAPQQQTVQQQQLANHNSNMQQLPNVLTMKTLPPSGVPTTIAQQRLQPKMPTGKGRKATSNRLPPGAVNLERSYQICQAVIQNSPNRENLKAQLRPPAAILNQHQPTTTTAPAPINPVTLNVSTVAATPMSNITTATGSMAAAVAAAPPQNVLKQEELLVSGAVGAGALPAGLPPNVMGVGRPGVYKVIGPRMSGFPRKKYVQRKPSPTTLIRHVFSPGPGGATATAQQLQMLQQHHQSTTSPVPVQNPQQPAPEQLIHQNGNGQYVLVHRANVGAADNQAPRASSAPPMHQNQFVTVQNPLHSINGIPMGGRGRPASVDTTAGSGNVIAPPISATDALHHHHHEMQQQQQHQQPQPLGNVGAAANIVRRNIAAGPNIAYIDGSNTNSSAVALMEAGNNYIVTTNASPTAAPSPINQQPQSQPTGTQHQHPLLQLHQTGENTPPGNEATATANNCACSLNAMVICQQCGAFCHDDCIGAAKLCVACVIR

Target: T1, GFP-tagged MBD domain of Drosophila Six-banded (SBA) (Drosophila) (UniProt A8JR92)
T1 sequence: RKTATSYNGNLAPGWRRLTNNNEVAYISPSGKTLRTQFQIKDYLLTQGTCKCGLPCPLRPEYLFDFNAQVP
Assay: affinity purification with mass spectrometry; GFP-fusion protein purified from Drosophila S2 cells transduced with the GFP-tagged MBD domain of SBA

binding: binds
Molecule: additional sex combs (ASX), endogenous in Drosophila S2 cells (from UniProt Q9V727 1-1669)

binding: binds
B1: Calypso, endogenous in Drosophila S2 cells (enzyme, UniProt Q7K5N4 1-471)
chain: MNAAGGGSGAQAAAVAAGNNSLSHNALLSTASGATTMPMAQLADGWLELESDPGLFTLLLKDFGCHDVQVEEVYDLQKPIESPYGFIFLFRWIEERRARRKIVETTAEIFVKDEEAISSIFFAQQVVPNSCATHALLSVLLNCNENNLQLGDTLSRLKTHTKGMSPENKGLAIGNTPELACAHNSHAMPQARRRLERTGAGVSSCRFTGEAFHFVSFVPINGQLFELDGLKPYPMNHGGWEDSEDWTDKFRRVMAERLGIATGEQDIRFNLMAVVPDRRIAITHKLKMLRTNQAIVSGTLQKLLKADEQGESGNGDSQRPDTPTTLLEPSAFTARDLQSLLKNLDTEIAINEQHLADENDRRHMFKVDASRRTHNYDKFICTFLSMLAHQGVLGELVSQHLLPSKKVSGQGAANRISKQSTTASAGGSTAAGTASTPKTQQQQAAAAKNGKSPSKTPGRRRKGRNKCRKRK
